Values from PubChem BioAssay AID652272 (Drosophila RNAi Screening Center, 2013).
In all, the deposit lists about 21,000 reagents; this is an unselected part of those with a known target gene and a result. Over the whole deposit, 503 (2.4%) were called active. 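Raw plate light values, not normalised; calls rest on replicate z-scores that were not deposited; hits include reporter decreases as well as increases.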 Entries without a mark were called inactive. Names joined by + are all predicted targets of the reagent. Not given: the amount of reagent, the time to read-out.

Purpose: 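Genes whose knock-down decreases or increases Hedgehog reporter output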 (primary screen)
System: Drosophila clone 8 (Cl8) cells
Reagents: long dsRNA against Drosophila genes
Detection: 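Plate reader light from a firefly reporter under a ptc promoter fragment that responds to Hedgehog, with Renilla light as transfection reference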
Scale: firefly Hh reporter signal: higher = more ptc reporter light; Renilla reference signal: higher = more Renilla control light
Rule for the call: 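Hit when the z-score averaged over two replicates is under -2 or over +3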
Calls: active = hit: reporter lowered or raised; inactive = not a hit

firefly Hh reporter signal, replicate 1 | firefly Hh reporter signal, replicate 2 | firefly Hh reporter signal, replicate 3 | Renilla reference signal, replicate 1 | Renilla reference signal, replicate 2 | gene | DRSC id
71955 | 59402 | – | 3141 | 1667 | Karybeta3 | DRSC12355
1.60e5 | 1.55e5 | – | 3792 | 3760 | CG11617 | DRSC00321
97906 | 50658 | – | 2042 | 3178 | CG18540 | DRSC06767
65025 | 26032 | – | 2791 | 1227 | Idgf3 | DRSC03351
74203 | 47815 | – | 2203 | 4538 | CG7236 | DRSC03037
91049 | 1.27e5 | – | 2614 | 3625 | Snx3 | DRSC16027
73090 | 2.37e5 | – | 2410 | 7328 | CG14270 | DRSC17913
78576 | 52965 | – | 1997 | 3146 | mRpL41 | DRSC06257
1.80e5 | – | – | 1960 | 5341 | CG13029 | DRSC09909
5.81e5 | 1.09e5 | – | 30994 | 3399 | CG18528 | DRSC15340
55513 | 42453 | 45457 | 4679 | 3065 | Ir68b | DRSC10251
1.88e5 | 1.18e5 | – | 7143 | 5076 | krimp | DRSC06578
2.91e5 | – | – | 5553 | – | side-VI | DRSC12828
3.57e5 | – | – | 6716 | – | side-VI | DRSC12830
87893 | 1.24e5 | – | 2848 | 3409 | side-VI | DRSC14920
73610 | 87624 | – | 2784 | 2369 | side-VI | DRSC15624
1.21e5 | 56742 | – | 3216 | 5091 | CG15483 | DRSC02493
1.12e5 | 78037 | – | 3251 | 2562 | Stip1 | DRSC00756
97347 | 75364 | – | 2176 | 5544 | Atg10 | DRSC06172
5.88e5 | 1.28e5 | – | 28375 | 3739 | CG13837 | DRSC14687
16345 (active) | 13965 | – | 1371 | 769 | Atx2 | DRSC15727
1.50e5 | 2.29e5 | – | 6295 | 6285 | Coq2 | DRSC16516
68789 | 51257 | 83176 | 5584 | 5888 | CG7607 | DRSC10889
2.34e5 | – | – | 4981 | – | CG33290 | DRSC11493
5.92e5 | 1.04e5 | – | 30551 | 7845 | Jhbp7 | DRSC14408
86028 | 58480 | – | 2752 | 1475 | Tbc1d8-9 | DRSC11820
96347 | 84661 | – | 4322 | 3936 | Cont | DRSC12149
74163 | 60759 | – | 2475 | 6337 | CG9016 | DRSC03127
92582 | 53392 | – | 3192 | 2192 | Idh | DRSC10779
1.21e5 | 2.14e5 | – | 3602 | 10717 | scw | DRSC01711
83281 | 2.46e5 | – | 3531 | 9463 | scw | DRSC21252
79428 | 44169 | – | 1936 | 4009 | CG14015 | DRSC02346
91041 | 1.00e5 | – | 3204 | 2923 | Npc2d | DRSC14551
66609 | 96972 | – | 1675 | 2924 | CG6296 | DRSC16013
1.12e5 | 64907 | – | 2935 | 6264 | CG17325 + CG42305 | DRSC02602
1.03e5 | 75869 | – | 2764 | 7145 | CG9014 | DRSC01979
1.18e5 | 50762 | – | 2998 | 3632 | CG13775 | DRSC02279
7.14e5 | 2.86e5 | – | 40551 | 6173 | CG40551 (retired record) | DRSC21229
87731 | 71430 | – | 3737 | 2880 | Ac3 | DRSC03692
1.33e5 | 72455 | – | 3082 | 2049 | SrpRalpha | DRSC20251
69547 | 68928 | – | 2528 | 1042 | CG14329 | DRSC14808
1.30e5 | 50345 | – | 3840 | 4774 | CG15293 | DRSC01919
1.12e5 | 37381 | – | 2996 | 3660 | CG14402 | DRSC02386
83613 | 51192 | – | 3040 | 2340 | gny | DRSC02810
1.39e5 | 77238 | – | 3381 | 7468 | CG10459 | DRSC05991
76722 | 82437 | – | 3873 | 3353 | CG8892 | DRSC03121
1.51e5 | 2.71e5 | – | 4331 | 13307 | CG4168 | DRSC01446
1.10e5 | 1.98e5 | – | 3232 | 9860 | CG4168 | DRSC01447
62476 | 62081 | – | 2624 | 2710 | CG4168 | DRSC01933
1.26e5 | 70896 | – | 4121 | 6460 | CadN | DRSC03286
1.02e5 | 55168 | – | 2285 | 4861 | Gdap2 | DRSC06789
91098 | 48837 | – | 1792 | 3707 | Gdap2 | DRSC06790
84374 | 80547 | – | 2871 | 2172 | Men-b | DRSC16736
91977 | 68116 | – | 1465 | 6171 | CG3640 | DRSC04399
5.36e5 | 1.01e5 | – | 5417 | 5417 | Pde11 | DRSC02028
51686 | 43910 | – | 858 | 5561 | Pde11 | DRSC02460
1.47e5 | 2.22e5 | – | 4038 | 10395 | bwa | DRSC01749
96540 | 63193 | – | 2746 | 5498 | bwa | DRSC02310

Hits, among the entries above:
firefly Hh reporter signal, replicate 1 | firefly Hh reporter signal, replicate 2 | firefly Hh reporter signal, replicate 3 | Renilla reference signal, replicate 1 | Renilla reference signal, replicate 2 | gene | DRSC id
16345 (active) | 13965 | – | 1371 | 769 | Atx2 | DRSC15727
